We go through 29 sequences from PubChem BioAssay AID1347423 (Functional Genomics Laboratory (NCATS/FGL), 2020).

Among all 52,000 sequences or so, about 210 (0.4%) were called active.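 Rule for the calls: active = gene whose silencing raises cell survival under the drug, median off-target-corrected z-score across its silencing RNAs 2 or more; inactive = the rest.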 The list shows a part of the results.

The experiment is described as follows: Resistance to Poly (ADP-Ribose) Polymerase inhibitor: Gene Identification via Genome-wide siRNA Screen. The settings on record: mouse BRCA2 R2336H ES cells, olaparib, CellTiter-Glo viability; active compounds read high. Summed up:
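Genome-wide siRNA screen (3 siRNAs/gene, 20 nM) in mouse ES cells carrying hypomorphic BRCA2 R2336H; olaparib 500 nM added 48 h post-transfection, CellTiter-Glo viability 72 h later. Normalized to plate-median negative control; MAD z-scores, gene median, seed-adjusted.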
A general note: Cellular ATP, detected with luciferase, serves as a proxy for viable cell number.
As for “GGAUCCUCUUGAUCAAGCUTT against 3100002B05Rik”, the z-score was inactive: -2.03.
The result for CCUAUAUGCCAAUCUUUCUTT against Rnf152 reads inactive: 0.476; that for GGAAAACACGAGUUUCCCUTT against Arrdc4, inactive: -0.208; that for GCCUUUGAUCUGAUGCACUTT against Adh5, inactive: -0.188.
For the sequence “GGAAAUCGAGGUUACAAGUTT against 5830446M03Rik”, the z-score was inactive: -3.18.
Next, GGAGUUAACAAGAUGAGCGTT against Arhgap24: inactive: 1.34.
Next, CCAUGCAGCAAAUCGAGUUTT against Klk5: inactive: -0.775; GGAUUAUGUCAAGGUCAAATT against Ntng2: inactive: 0.362; GGAGUUUUCAAUUUUGAUGTT against Il17rb: inactive: -0.296.
The result for “GGCAGACAGAAGAUAUUUGTT against 4933437N03Rik” reads inactive: 0.35.
On to GGCGCAUGCUGGAUAAACATT against D11Lgp2e, for which the z-score is inactive: -1.33.
With GGAAGAUUUUUCAAAGGAUTT against Itgb6, the z-score was active: 2.51.
Turning to CCAGAACCCUAGACUUUGCTT against Wfdc6, the z-score was inactive: -1.51.
The result for “GCCGUGAAAUACAGCGUAATT against C730015A04Rik” reads inactive: -0.846.
As for GGACAUGGUGUUGUGCUAUTT against Myt1l, the z-score was inactive: 0.813.
The result for GCCCUAAUCUAUGGGACAUTT against AI839735 reads inactive: 0.301; that for GCUACCAUGAGAUUUCUAATT against Dido1, inactive: -1.38; that for GGAGCUCUACAUCAUAGACTT against Lhx1, inactive: -0.0389.
For “GCCUAACAAUAGUGGAAUUTT against 1700060E18Rik”, the z-score is inactive: -2.22.
Next, GGAGCUAAAUGGCUCUGAUTT against Boc: inactive: 0.96; “GGAGAAUGCUUUCAUUGUATT against 2810410L24Rik”: inactive: -1.39; GGAACUGUUUCUCUUUCCUTT against Rad9: inactive: -1.17.
Next, AUUGGCAGUUAAGGACCGATT against Noto: inactive: 1.52.
The result for CCACUAACGAUGCAAAAAATT against Mep1a reads inactive: 0.127; that for GGAACAAGAGAGGACAAGUTT against Papss2, inactive: -0.38; that for GGAUCUUACUAUCACCAGCTT against Foxf1a, inactive: 0.202.
In the case of CCCAAUGUAUUCUACCUACTT against Cast, the z-score was inactive: 1.09.
Next, GGAGCAAGUAUUUACAUUGTT against Psmd10: inactive: 0.0646.
The result for “GGAUUCUUCAUCCCUAAAUTT against 4930470P17Rik” reads inactive: -0.289.
